Laboratory results as given in paper PMC4662715.
These are yes or no findings as the source states them, for the method shown. Binding calls can cover weak binding; strength is not graded here. Where a sequence is shown, tags or fusion partners need not be part of it.

What was measured:
[1] = target: T1, CCR1-rHDL (human C-C chemokine receptor 1 with C-terminal 1D4 tag, in reconstituted high density lipoprotein) (human) (UniProt P32246); test: transferred cross-saturation (TCS) NMR, methyl-directed; 10 μM [u-2H, (Ile-, Leu-, Val-13C1H3)] MIP-1α variant with about 1/10 molar equivalent of CCR1-rHDL; both purified
T1 sequence: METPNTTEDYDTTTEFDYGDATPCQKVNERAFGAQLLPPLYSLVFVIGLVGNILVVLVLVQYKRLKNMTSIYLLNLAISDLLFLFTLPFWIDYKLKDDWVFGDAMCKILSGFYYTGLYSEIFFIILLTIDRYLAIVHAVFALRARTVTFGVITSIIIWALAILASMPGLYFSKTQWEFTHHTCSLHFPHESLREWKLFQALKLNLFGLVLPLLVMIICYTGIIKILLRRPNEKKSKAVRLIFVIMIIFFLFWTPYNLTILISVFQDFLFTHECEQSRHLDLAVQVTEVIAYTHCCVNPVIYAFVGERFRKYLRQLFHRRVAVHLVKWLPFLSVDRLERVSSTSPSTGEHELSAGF

[2] = target: T1, CCR1-rHDL (human C-C chemokine receptor 1 with C-terminal 1D4 tag, in reconstituted high density lipoprotein) (human); test: transferred cross-saturation (TCS) NMR, amide-directed; 50 μM [u-2H,15N] MIP-1α variant with about 3/50 molar equivalent of CCR1-rHDL or CCR5-rHDL; 20 mM HEPES, pH 6.0, 100 mM NaCl, 75 % D2O, 5 % glycerol; 15 °C; empty-rHDL control subtracted (ΔRR); spectra reconstructed by Co-ANAFOR; both purified

- binding [1]: binds
- binding [2]: binds
Substance: MIP-1α variant (P8A/F13Y/E67Q) (ligand)
